The text below walks through data of PubChem BioAssay AID256 (DTP/NCI, 2004).

This assay deals with CD2F1 mice, L1210 leukemia ip, survival T/C. The assay is described as follows: NCI In Vivo Anticancer Drug Screen. Data for tumor model L1210 Leukemia (intraperitoneal) in CD2F1 (CDF1) mice. The settings on record: T/C endpoint: mean survival time, higher T/C = longer survival. The procedure, abridged: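 Transplantable tumor in mice; compound-treated vs vehicle-treated groups. Read-out = treated/control ratio of the measured endpoint.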

Where [1] appears, read: dose: 100.0 mg/kg/injection, schedule: Q01DX009 (ip), vehicle: saline with Tween-80.
[2] abbreviates: dose: 200.0 mg/kg/injection, schedule: Q01DX009 (ip), vehicle: saline with Tween-80.
[3] abbreviates: dose: 400.0 mg/kg/injection, schedule: Q01DX001 (ip), vehicle: saline with Tween-80.
[4] abbreviates: dose: 400.0 mg/kg/injection, schedule: Q01DX009 (ip), vehicle: saline with Tween-80.
Setting [5] is: dose: 400.0 mg/kg/injection, schedule: Q04DX003 (ip), vehicle: saline with Tween-80.

The list shows only some results of the screen, not a fair sample: it is rich in T/C values a quarter to a half above the control, in often repeated tests (any T/C) and in doses without a T/C. Further doses and runs are listed elsewhere. T/C: endpoint of the treated group in % of that of the vehicle group. Some entries give survivors of the animals treated and no T/C: the source files T/C as zero there, which appears to mark a toxic dose or a test without result, not a measured value. Some survivor counts are full or nearly so, which does not show that the dose was tolerated: the source hardly ever lists a survival T/C far under the control, and the zero likely stands for such cases as well. Counts of survivors are from the toxicity check (mostly the fifth day) where no day follows; animals may have died later. Schedule codes are those of the source, taken here to give the interval after Q, in days (D) or hours (H), and the number of doses after X. Where survival is the endpoint, the PubChem record calls one and a half times the control and up active, and a quarter to a half above the control has no call in these data; cut-offs in other NCI protocols can differ. Some entries were tested several times; the results are listed from low to high.

Consider `CC(=O)NC(CCC(=O)C=[N+]=N)C(=O)O` (stereo not drawn), for which the survivor count is, setting by setting: (dose: 0.01 mg/kg/injection, schedule: Q03HX024 (ip), vehicle: saline) 10 of 10; (dose: 0.03 mg/kg/injection, schedule: Q03HX024 (ip), vehicle: saline) 10 of 10; (dose: 0.06 mg/kg/injection, schedule: Q03HX024 (ip), vehicle: saline) 10 of 10; (dose: 2.0 mg/kg/injection, schedule: Q01DX009 (ip), vehicle: saline) 10 of 10; (dose: 4.0 mg/kg/injection, schedule: Q01DX005 (iv), vehicle: saline) 9 of 10; (dose: 4.0 mg/kg/injection, schedule: Q01DX009 (ip), vehicle: saline) 9 of 10. The survivor count was 2 of 10 (dose: 8.0 mg/kg/injection, schedule: Q01DX005 (ip), vehicle: saline); 8 of 10 (dose: 8.0 mg/kg/injection, schedule: Q01DX009 (ip), vehicle: saline); 4 of 10 (dose: 16.0 mg/kg/injection, schedule: Q01DX005 (ip), vehicle: saline). Also, the T/C by setting is: (dose: 0.2 mg/kg/injection, schedule: Q01DX009 (ip), vehicle: water) 136 % of control; (dose: 0.25 mg/kg/injection, schedule: Q03HX016 (ip), vehicle: saline) 130 and 137 % of control; (dose: 0.25 mg/kg/injection, schedule: Q03HX024 (ip), vehicle: saline) 144 % of control; (dose: 0.5 mg/kg/injection, schedule: Q01DX005 (iv), vehicle: saline) 125 % of control; (dose: 0.5 mg/kg/injection, schedule: Q01DX009 (ip), vehicle: saline) 126 and 130 % of control; (dose: 0.5 mg/kg/injection, schedule: Q01DX009 (oral), vehicle: saline) 137 % of control. The T/C is, setting by setting: (dose: 0.5 mg/kg/injection, schedule: Q03HX008 (ip), vehicle: saline) 132 % of control; (dose: 0.5 mg/kg/injection, schedule: Q03HX016 (ip), vehicle: saline) 147 % of control; (dose: 0.5 mg/kg/injection, schedule: Q03HX024 (ip), vehicle: saline) 144 % of control; (dose: 0.5 mg/kg/injection, schedule: Q06HX008 (ip), vehicle: saline) 136 % of control; (dose: 0.5 mg/kg/injection, schedule: Q06HX012 (ip), vehicle: saline) 149 % of control; (dose: 0.6 mg/kg/injection, schedule: Q01DX009 (ip), vehicle: water) 125 % of control. The T/C is, setting by setting: (dose: 1.0 mg/kg/injection, schedule: Q01DX005 (ip), vehicle: saline) 130 % of control; (dose: 1.0 mg/kg/injection, schedule: Q01DX005 (iv), vehicle: saline) 131 and 136 % of control; (dose: 1.0 mg/kg/injection, schedule: Q01DX009 (ip), vehicle: saline) 133 % of control; (dose: 1.0 mg/kg/injection, schedule: Q03HX008 (ip), vehicle: saline) 139 % of control; (dose: 1.0 mg/kg/injection, schedule: Q06HX008 (ip), vehicle: saline) 143 % of control; (dose: 2.0 mg/kg/injection, schedule: Q01DX005 (iv), vehicle: saline) 139 % of control. The T/C reads like this: (dose: 2.0 mg/kg/injection, schedule: Q03HX008 (ip), vehicle: saline) 136 % of control; (dose: 4.0 mg/kg/injection, schedule: Q04DX003 (ip), vehicle: saline) 134 % of control; (dose: 8.0 mg/kg/injection, schedule: Q04DX003 (ip), vehicle: saline) 143 % of control; (dose: 16.0 mg/kg/injection, schedule: Q01DX001 (ip), vehicle: saline) 125 % of control; (dose: 16.0 mg/kg/injection, schedule: Q08DX002 (ip), vehicle: saline) 137 % of control.

`COC(=O)c1cc2cc3c(c(O)c2c(=O)o1)OC1(Cc2c(O)c4c(c(O)c2O1)C(=O)C(OC)CC4=O)CC3O` (stereo not drawn): the survivor count is, setting by setting: (dose: 50.0 mg/kg/injection, schedule: Q01DX009 (ip), vehicle: saline with Tween-80) 6 of 6; under setting [1], 6 of 6; under setting [2], 3 of 6; under setting [4], 0 of 6. Besides, the T/C under setting [3] was 140 % of control.

Regarding `N#CC1(Nc2ccccc2)CCCCC1`, the survivor count is, setting by setting: (dose: 200.0 mg/kg/injection, schedule: Q01DX009 (ip), vehicle: other) 2 of 6; under setting [5], 1 of 6.

In the case of `CC(C)(C)N1CCCC1`, the survivor count (dose: 200.0 mg/kg/injection, schedule: Q04DX003 (ip), vehicle: acetone) was 0 of 6 and the survivor count (dose: 400.0 mg/kg/injection, schedule: Q04DX003 (ip), vehicle: acetone) is recorded as 0 of 6.

As to `O=C(O)CCCC(=O)C1CCCCC1`, the survivor count under setting [5] was 5 of 6.

With `CCCCN(CCCC)CC(O)c1cc(-c2cc(C(O)CN(CCCC)CCCC)c3ccccc3n2)nc2ccccc12` (stereo not drawn), the survivor count under setting [5] was 6 of 6.

`CCOC(=O)C(CCC(O)C#N)(NC(C)=O)C(=O)OCC` (stereo not drawn): the survivor count runs as follows: (dose: 100.0 mg/kg/injection, schedule: Q04DX002 (ip), vehicle: saline with Tween-80) 0 of 3; (dose: 200.0 mg/kg/injection, schedule: Q04DX002 (ip), vehicle: saline with Tween-80) 0 of 3; (dose: 400.0 mg/kg/injection, schedule: Q04DX002 (ip), vehicle: saline with Tween-80) 0 of 3.

For the compound `CC(CNC1CCCCC1)OC(=O)c1ccc(N)cc1` (stereo not drawn), the survivor count was 0 of 6 (dose: 150.0 mg/kg/injection, schedule: Q01DX001 (ip), vehicle: saline) and 0 of 6 (dose: 300.0 mg/kg/injection, schedule: Q01DX001 (ip), vehicle: saline).

Consider `CC1=CC(=O)C(Sc2ccc(C)cc2)=CC1=O`, for which the survivor count was 2 of 6 under setting [1] and 2 of 6 under setting [2].

On to `O=S(=O)(/N=C/c1ccccc1)c1ccc(Cl)cc1`, for which the survivor count under setting [2] was 1 of 3.

As to `CCCCCCCCCCCCCCCCCC[N+]1(Cc2ccccc2)CCOCC1`, the survivor count is 5 of 6 under setting [2] and 0 of 6 under setting [4].

In the case of `COc1ccc2c(Nc3ccc(NS(C)(=O)=O)cc3)c3ccccc3nc2c1`, the T/C (dose: 67.0 mg/kg/injection, schedule: Q04DX003 (ip), vehicle: saline with Tween-80) was 132 % of control and the T/C (dose: 100.0 mg/kg/injection, schedule: Q04DX003 (ip), vehicle: saline) was 130 % of control. In addition, the survivor count was 3 of 6 under setting [1]; 6 of 6 (dose: 200.0 mg/kg/injection, schedule: Q04DX003 (ip), vehicle: saline); 2 of 6 (dose: 400.0 mg/kg/injection, schedule: Q04DX003 (ip), vehicle: saline).

With `CC1CN1CC(O)C(O)CN1CC1C` (stereo not drawn), the T/C runs as follows: (dose: 0.61 mg/kg/injection, schedule: Q04DX003 (ip), vehicle: saline) 138 % of control; (dose: 0.92 mg/kg/injection, schedule: Q04DX003 (ip), vehicle: saline) 131 % of control. Besides, the survivor count was 6 of 6 (dose: 5.0 mg/kg/injection, schedule: Q01DX009 (ip), vehicle: saline) and 3 of 6 (dose: 10.0 mg/kg/injection, schedule: Q01DX009 (ip), vehicle: saline).

Turning to `Nc1cc(Cl)c(N)c(N)n1`, the survivor count under setting [4] was 3 of 6.

For the compound `CCCN1C(=O)C=CC1=O`, the survivor count is listed as 1 of 6 (dose: 200.0 mg/kg/injection, schedule: Q01DX001 (ip), vehicle: saline with Tween-80) and 2 of 6 under setting [3].

In the case of `O=C(O)c1cc(CBr)ccc1CBr`, the survivor count is, setting by setting: (dose: 100.0 mg/kg/injection, schedule: Q04DX003 (ip), vehicle: saline with Tween-80) 3 of 6; (dose: 200.0 mg/kg/injection, schedule: Q04DX003 (ip), vehicle: saline with Tween-80) 0 of 6; under setting [5], 0 of 6.
